For at least one compound, name, drawing or mass did not settle the structure.
What was measured:
MOLM14 cells = assay: Immunoblot of FLT3, Beclin-1, AKT, ERK1/ERK2 in MOLM14 cells; assay type: cell-based, human
From the text: (§1) The following antibodies were purchased from Cell Signaling Technology (Danvers, Mass.): total AKT (rabbit, #9272) and total p44/42 MAPK (Erk1/2) (3A7) (mouse, #9107) were used at 1:1000 dilution. Anti-GAPDH (D16H-11) XP (R) (rabbit mAb, #5174) was used at 1:1000 dilution. Beclin-1 (rabbit, #3738) was used at 1:1000. USP10 (D7A5) (rabbit, #8501) was used at 1:1000 dilution. P53 (rabbit, #9282) was used at 1:1000 dilution. β-tubulin (rabbit, #2146s) was used 1:1000.
(§2) FLT3/Flk-2 (C-20) (sc-479) and Ub (P4D1) (mouse, sc-8017) were purchased from Santa Cruz Biotechnology, Inc. (Dallas, Tex.) and used at 1:1000 dilution for immunoblotting. Anti-pTyr (mouse, clone 4G10) was purchased from Upstate Biotechnology (Lake Placid, N.Y.) and was used at 1:1000 dilution. Anti-HAUSP/USP7 antibody (rabbit, ab4080) and anti-ubiquitin antibody (rabbit, ab7780) were purchased from Abcam (Cambridge, Mass.) and used at 1:1000 dilution.
(§3) Protein lysate preparation, immunoblotting, and immunoprecipitation were carried out as previously described in Weisberg et al. (2002) Cancer Cell 1:433-443.

[1] = test system: mutant FLT3-expressing cells; assay: Dynamic BH3 profiling (mitochondrial priming); assay type: cell-based, human; settings: cytochrome c release in response to Bim peptide, 14 h; compared to wt or null FLT3-expressing cells
Description: To determine drug-induced changes in mitochondrial priming, dynamic BH3 profiling was performed as previously described in Montero et al. (2015) Cell 160:977-989 and Pan et al. (2014) Cancer Discov. 4:362-375. Briefly, 0.4×10^6 cells/well were exposed to drug treatment for 14 hours. At the end of incubation time, cells were washed in PBS, pelleted at 500×g for 5 min, and resuspended in MEB buffer. Fifteen μl of cell suspension was added to each well of 384 well plate containing 15 μl of MEB buffer containing 20 μg/mL digitonin and BH3 peptides at twice their final concentration, and the mixture was incubated for 60 min at 26° C. to allow mitochondrial depolarization. Peptide exposure was then terminated by adding 10 μl 4% formaldehyde in PBS for 15 min, followed by neutralization with N2 buffer (1.7M Tris, 1.25M glycine, pH 9.1) for 10 min. In order to determine cytochrome C levels, anti-cytochrome C clone 6H2.B4 conjugated to Alexa Fluor® 647 (BD Bioscience) was diluted 1:50 in 10× staining buffer (10% BSA, 2% Tween-20 and 0.02% sodium azide in PBS) and 10 μl of this antibody-containing buffer was added to each well for a final dilution of 1:400. Cells were stained overnight at 4° C. in dark and data were acquired on a BD LSRFortessa™ analyzer (BD Biosciences). Priming change (Δ) was calculated by comparing cytochrome C abundance in treated cells to that of DMSO-treated control cells.

[2] = test system: Ba/F3-FLT3-ITD-luc+ cells; assay: Non-invasive in vivo bioluminescence study; settings: 50 mg/kg IP BID or PO QD; 4-6 days of treatment; vs vehicle
[3] = test system: wt FLT3-expressing leukemia cell lines; assay: FLT3 protein in wt FLT3-expressing leukemia cell lines (immunoblot); assay type: cell-based, human; settings: approximately 23 hours of treatment
Description: as §3

[4] = test system: FLT3-ITD-positive AML primagraft cells; assay: FLT3 immunoblot in ex vivo-treated AML primagraft cells; assay type: cell-based, human; settings: 21 hours of treatment; concentration of 20
Description: as §3

MOLM13 and MOLM14 cells = assay: p53 levels in AML cell lines (immunoblot); assay type: cell-based, human
From the text: as §1, §3

[5] = test system: FLT3-ITD+, D835Y+ AML primagraft; assay: Primagraft study in NSG mice; assay type: in vivo; settings: 15 mg/kg IP 1× daily for 21 days; pooled lysate of 3 mice
Description: All animal studies were performed according to protocols approved by the Dana-Farber Cancer Institute's Institutional Animal Care and Use Committee. […]. Mice were sacrificed on day 21 of treatment. Bone marrow was flushed from mouse femurs, and spleens and livers were dissected and preserved first in formalin, followed 24 hours later by preservation in 70% ethanol. […]; All AML primagraft samples used in the studies described herein were obtained through the Public Repository of Xenografts (proxe.org).

Ba/F3-FLT3-ITD cells = assay: Immunoblot of FLT3 / Beclin-1 in Ba/F3-FLT3-ITD cells; assay type: cell-based, murine; settings: 10 μM
From the text: as §1, §2, §3

[6] = test system: AML patients with FLT3 mutations; settings: combined with standard chemotherapy; placebo arm 26.0 months; p=0.007; cited from earlier work

For CC(=O)c1cc([N+](=O)[O-])c(Sc2ccc(F)cc2F)s1 [P22077], the Beclin-1 level (MOLM14 cells; 10 μM, approximately 24 hours) was “strongly decreased”, the “Expression of AKT and ERK1/ERK2 downstream of FLT3” value (MOLM14 cells; approximately 23 hours of treatment) was “unchanged” and the “Mitochondrial priming for apoptosis” value [1] was “increased priming”. For the same compound, the “Leukemia burden by in vivo bioluminescence” value [2] was “statistically significant decrease in leukemia burden”, the FLT3 protein [3] was “little to no impact” and the “FLT3 levels via immunoblotting” value [4] was “no trace of FLT3”. For the same compound, the p53 levels (MOLM13 and MOLM14 cells) was “did not result in a decrease of p53 levels”, the “FLT3 signal in bone marrow cell lysates” value [5] was “undetectable” and the Beclin-1 level (Ba/F3-FLT3-ITD cells) was “partially degraded”.
In the case of CO[C@@H]1[C@H](N(C)C(=O)c2ccccc2)C[C@H]2O[C@]1(C)n1c3ccccc3c3c4c(c5c6ccccc6n2c5c31)C(=O)NC4 [midostaurin], the Overall survival [6] is given as 74.7 months.

From patent US11136409B2, “Compositions and methods for identification, assessment, prevention, and treatment of AML using USP10 biomarkers and modulators” (Dana-Farber Cancer Institute, Inc., priority 2016, dated 2021)
